No constants are given. Whether binding was seen depends on the method and setting. For some assays here: Binding calls can cover weak binding; strength is not graded here. One block for each molecule: values may come before it.
Legend:
Assay in all cases: two-hybrid; bacterial two-hybrid (BTH): T18 and T25 fusions (pUT18 and p25N derivatives) in E. coli BTH101; colour of colonies on plates with 40 μg/ml X-gal
[1] = target: T1, DnaA of S. aureus (S. aureus) (UniProt Q2G2H5)
T1 sequence: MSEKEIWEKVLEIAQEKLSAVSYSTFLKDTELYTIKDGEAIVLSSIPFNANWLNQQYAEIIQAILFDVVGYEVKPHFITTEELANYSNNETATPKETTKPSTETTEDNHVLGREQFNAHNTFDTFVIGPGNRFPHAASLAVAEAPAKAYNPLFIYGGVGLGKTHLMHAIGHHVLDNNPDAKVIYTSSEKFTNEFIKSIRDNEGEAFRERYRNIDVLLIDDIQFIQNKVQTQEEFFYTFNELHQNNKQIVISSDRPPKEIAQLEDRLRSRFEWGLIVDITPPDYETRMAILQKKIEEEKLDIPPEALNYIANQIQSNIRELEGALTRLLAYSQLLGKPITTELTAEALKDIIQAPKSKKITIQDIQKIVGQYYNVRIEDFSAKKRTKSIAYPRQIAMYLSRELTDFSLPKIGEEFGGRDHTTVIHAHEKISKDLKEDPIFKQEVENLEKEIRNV

[2] = target: T2, DnaB of S. aureus (S. aureus) (UniProt Q2FXP4)
T2 sequence: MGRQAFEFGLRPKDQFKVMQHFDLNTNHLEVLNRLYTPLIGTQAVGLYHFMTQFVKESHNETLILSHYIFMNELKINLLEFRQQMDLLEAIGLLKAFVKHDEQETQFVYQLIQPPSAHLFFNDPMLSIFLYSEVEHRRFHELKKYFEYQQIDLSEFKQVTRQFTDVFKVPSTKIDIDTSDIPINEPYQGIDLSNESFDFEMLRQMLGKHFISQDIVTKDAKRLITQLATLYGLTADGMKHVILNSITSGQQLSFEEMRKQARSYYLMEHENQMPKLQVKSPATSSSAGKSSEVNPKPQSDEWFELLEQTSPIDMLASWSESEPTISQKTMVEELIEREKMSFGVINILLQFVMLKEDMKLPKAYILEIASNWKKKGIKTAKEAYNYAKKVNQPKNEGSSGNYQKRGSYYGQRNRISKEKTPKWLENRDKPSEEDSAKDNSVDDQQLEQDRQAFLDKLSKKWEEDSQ

[3] = target: HolA (δ) of S. aureus (S. aureus)
[4] = target: HolB (δ`) of S. aureus (S. aureus)

B1: DnaB of S. aureus (protein, UniProt Q2FXP4 1-466)
chain: T2 sequence
binding [3]: no binding

B2: DnaA of S. aureus (protein, UniProt Q2G2H5 1-453)
chain: T1 sequence
binding [3]: no binding

Second part, the molecule after the results:

binding [1]: no binding
binding [2]: no binding
Molecule: DnaX (τ) of S. aureus (from UniProt A0A0H2XIT2)

binding [3]: binds
binding [4]: binds
Molecule: HolB (δ`) of S. aureus (from UniProt A0A0H2XHN8 1-308)

binding [1]: no binding
binding [2]: no binding
Molecule: PolC of S. aureus
